Five molecules from PMC10318467 can be followed below.

Amino acid sequences for entries named in this document (tags omitted).
UniProt P52297: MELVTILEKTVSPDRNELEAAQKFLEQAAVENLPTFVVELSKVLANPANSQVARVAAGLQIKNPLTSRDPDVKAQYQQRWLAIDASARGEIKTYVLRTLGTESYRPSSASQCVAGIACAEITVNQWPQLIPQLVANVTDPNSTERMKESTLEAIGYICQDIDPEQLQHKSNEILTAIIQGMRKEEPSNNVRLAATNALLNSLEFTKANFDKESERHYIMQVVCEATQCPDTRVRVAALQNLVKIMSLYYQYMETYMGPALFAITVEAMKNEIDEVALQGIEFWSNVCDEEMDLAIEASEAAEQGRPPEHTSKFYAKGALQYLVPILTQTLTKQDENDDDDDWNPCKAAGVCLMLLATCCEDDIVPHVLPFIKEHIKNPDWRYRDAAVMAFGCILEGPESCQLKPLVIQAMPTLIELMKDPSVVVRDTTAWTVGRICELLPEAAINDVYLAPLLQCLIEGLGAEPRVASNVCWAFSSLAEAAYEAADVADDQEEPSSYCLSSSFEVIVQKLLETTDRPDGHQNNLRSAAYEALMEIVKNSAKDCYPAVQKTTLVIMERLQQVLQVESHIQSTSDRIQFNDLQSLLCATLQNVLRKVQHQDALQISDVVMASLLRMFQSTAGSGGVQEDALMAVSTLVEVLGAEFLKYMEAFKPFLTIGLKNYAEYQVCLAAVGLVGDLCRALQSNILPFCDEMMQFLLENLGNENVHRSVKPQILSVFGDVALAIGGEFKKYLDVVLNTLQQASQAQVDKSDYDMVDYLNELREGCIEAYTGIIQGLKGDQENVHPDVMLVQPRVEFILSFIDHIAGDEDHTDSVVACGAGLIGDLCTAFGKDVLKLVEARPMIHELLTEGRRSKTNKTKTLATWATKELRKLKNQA

In assay [1] the target is T1, GST-GFP-Haus8^1–150 (X. laevis) (UniProt Q0IHJ3).
T1 sequence: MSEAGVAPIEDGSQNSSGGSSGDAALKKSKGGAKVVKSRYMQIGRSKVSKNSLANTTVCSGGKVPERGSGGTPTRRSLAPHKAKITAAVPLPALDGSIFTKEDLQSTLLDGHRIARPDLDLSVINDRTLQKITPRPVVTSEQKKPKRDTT
Kind of assay: TIRF microscopy of binding to immobilised microtubules; as a5, 100 nM GFP-labeled Haus8 or augmin incubated on ice for 10 min with a 10-fold molar excess of importins (and Ran^Q69L) before the flow chamber; both purified.

The target of assay [2] is GST-importin-β (X. laevis) (UniProt P52297). In words: pull-down; 2 μM GST-importin on magnetic glutathione agarose; 2 μM GFP-Haus8 (1–150) or 200 nM augmin complex; low-salt CSFxB with 0.1% Tween-20, 4 °C, 2 h; Western blot with α-Strep or α-Haus1; both purified. In general terms: A western blot detects proteins with antibodies after separation by electrophoresis.

Positions count from the first letter of the chain named. In names and notes the source's numbering stands. These are yes or no findings as the source states them, for the method shown. Some results given as binding are weak or reduced against the parent protein; the word gives no strength. Sequences can lack the tags named with a protein.

As for “GST-importin-β (from UniProt P52297 1-876)”, in assay [1], the binding result was “binds”.

B1: Strep-GFP-Haus8^1–150 ΔNLS1 (K27A/K28A) (domain or fragment, UniProt Q0IHJ3 1-150)
chain: T1 sequence with K27A, K28A
As for B1, the binding result in assay [2] is reported as “binds”.

B2: Strep-GFP-Haus8^1–150 (domain or fragment, UniProt Q0IHJ3 1-150)
chain: T1 sequence
With B2, the binding entry in assay [2] was “binds”.

B3: Strep-GFP-Haus8^1–150 with mutations to both NLS sites (K27A/K28A and K143A/K144A) (domain or fragment, UniProt Q0IHJ3 1-150)
chain: T1 sequence with K27A, K28A, K143A, K144A
As for B3, in assay [2], the binding result is given as “binds”.

B4: Strep-GFP-Haus8^1–150 ΔNLS2 (K143A/K144A) (domain or fragment, UniProt Q0IHJ3 1-150)
chain: T1 sequence with K143A, K144A
B4: the binding entry in assay [2] is recorded as “binds”.
